# No constants are given. Whether binding was seen depends on the method and setting. Binding seen in cells or lysates may run through a third protein. Some results given as binding are weak or reduced against the parent protein; the word gives no strength.
# Amino acid sequences for entries named in this document (tags omitted). A change or cut given only in a name is not applied to a line headed by its entry. Residues count along the entry.
# UniProt Q9NXA8, residues 37-310: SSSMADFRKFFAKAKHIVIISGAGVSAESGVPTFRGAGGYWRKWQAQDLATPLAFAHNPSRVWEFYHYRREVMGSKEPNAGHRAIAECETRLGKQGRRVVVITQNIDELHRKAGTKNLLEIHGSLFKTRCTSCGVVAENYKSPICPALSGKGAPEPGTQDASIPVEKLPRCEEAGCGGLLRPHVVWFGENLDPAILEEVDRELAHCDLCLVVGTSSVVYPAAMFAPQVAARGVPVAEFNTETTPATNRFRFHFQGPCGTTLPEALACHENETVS
# UniProt Q92793: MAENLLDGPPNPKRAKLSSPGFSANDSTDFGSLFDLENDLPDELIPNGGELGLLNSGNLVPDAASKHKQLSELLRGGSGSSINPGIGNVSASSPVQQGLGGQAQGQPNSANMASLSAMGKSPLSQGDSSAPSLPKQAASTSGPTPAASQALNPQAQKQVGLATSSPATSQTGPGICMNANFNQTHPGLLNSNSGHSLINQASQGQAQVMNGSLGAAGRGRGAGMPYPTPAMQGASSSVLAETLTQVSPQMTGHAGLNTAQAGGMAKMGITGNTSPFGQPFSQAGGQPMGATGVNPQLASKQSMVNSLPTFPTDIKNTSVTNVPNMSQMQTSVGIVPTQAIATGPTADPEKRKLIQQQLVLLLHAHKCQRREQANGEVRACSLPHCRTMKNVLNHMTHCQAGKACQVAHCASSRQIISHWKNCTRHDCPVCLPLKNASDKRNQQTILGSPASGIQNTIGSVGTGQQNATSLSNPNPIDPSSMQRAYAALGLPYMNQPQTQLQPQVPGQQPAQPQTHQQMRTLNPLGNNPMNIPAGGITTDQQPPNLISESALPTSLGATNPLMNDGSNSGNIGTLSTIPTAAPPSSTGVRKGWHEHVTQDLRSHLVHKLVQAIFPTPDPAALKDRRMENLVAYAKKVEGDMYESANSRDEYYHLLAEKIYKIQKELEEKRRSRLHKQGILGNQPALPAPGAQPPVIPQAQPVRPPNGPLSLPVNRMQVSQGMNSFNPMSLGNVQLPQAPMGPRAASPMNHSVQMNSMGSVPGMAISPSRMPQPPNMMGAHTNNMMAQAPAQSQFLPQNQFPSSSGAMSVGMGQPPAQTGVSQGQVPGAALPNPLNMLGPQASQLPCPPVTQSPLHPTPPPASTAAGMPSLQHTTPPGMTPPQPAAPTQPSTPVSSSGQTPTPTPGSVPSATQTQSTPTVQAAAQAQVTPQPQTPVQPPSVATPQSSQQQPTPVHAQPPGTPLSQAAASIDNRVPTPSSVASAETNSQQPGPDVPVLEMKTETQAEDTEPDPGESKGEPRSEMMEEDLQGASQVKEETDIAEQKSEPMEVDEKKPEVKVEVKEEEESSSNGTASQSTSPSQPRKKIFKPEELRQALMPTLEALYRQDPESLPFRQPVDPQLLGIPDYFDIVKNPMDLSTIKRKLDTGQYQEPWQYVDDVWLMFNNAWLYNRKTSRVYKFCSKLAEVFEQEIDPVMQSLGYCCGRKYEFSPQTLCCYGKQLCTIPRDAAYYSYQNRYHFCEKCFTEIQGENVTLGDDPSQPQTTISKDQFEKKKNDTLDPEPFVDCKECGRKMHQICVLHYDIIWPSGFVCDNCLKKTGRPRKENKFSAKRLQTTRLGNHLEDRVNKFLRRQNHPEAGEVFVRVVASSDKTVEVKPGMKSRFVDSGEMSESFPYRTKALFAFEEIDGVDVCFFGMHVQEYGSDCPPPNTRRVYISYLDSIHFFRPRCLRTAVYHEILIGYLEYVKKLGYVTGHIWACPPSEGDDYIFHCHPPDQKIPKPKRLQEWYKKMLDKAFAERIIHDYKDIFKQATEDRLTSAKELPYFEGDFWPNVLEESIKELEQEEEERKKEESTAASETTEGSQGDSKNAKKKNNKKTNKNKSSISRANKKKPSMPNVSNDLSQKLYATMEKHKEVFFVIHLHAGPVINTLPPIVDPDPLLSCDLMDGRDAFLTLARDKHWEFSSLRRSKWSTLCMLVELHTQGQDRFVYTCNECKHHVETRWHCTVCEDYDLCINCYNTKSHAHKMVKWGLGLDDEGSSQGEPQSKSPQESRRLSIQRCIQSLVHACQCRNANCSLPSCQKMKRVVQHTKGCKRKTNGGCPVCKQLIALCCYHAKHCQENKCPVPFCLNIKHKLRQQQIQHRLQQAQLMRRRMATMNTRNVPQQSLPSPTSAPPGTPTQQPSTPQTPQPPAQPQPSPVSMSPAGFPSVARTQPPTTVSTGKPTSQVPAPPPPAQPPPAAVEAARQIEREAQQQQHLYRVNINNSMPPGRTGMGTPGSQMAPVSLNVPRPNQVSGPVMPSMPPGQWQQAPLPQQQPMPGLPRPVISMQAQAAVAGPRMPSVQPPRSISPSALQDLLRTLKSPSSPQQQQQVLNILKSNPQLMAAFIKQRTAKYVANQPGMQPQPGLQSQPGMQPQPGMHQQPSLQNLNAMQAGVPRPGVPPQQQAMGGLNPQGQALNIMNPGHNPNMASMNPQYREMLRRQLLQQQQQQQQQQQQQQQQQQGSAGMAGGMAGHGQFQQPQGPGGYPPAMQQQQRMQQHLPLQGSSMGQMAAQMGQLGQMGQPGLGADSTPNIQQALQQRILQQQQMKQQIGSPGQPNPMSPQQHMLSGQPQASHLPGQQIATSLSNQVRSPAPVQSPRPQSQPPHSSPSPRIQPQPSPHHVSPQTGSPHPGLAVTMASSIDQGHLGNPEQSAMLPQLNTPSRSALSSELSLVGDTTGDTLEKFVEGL
# UniProt P40763: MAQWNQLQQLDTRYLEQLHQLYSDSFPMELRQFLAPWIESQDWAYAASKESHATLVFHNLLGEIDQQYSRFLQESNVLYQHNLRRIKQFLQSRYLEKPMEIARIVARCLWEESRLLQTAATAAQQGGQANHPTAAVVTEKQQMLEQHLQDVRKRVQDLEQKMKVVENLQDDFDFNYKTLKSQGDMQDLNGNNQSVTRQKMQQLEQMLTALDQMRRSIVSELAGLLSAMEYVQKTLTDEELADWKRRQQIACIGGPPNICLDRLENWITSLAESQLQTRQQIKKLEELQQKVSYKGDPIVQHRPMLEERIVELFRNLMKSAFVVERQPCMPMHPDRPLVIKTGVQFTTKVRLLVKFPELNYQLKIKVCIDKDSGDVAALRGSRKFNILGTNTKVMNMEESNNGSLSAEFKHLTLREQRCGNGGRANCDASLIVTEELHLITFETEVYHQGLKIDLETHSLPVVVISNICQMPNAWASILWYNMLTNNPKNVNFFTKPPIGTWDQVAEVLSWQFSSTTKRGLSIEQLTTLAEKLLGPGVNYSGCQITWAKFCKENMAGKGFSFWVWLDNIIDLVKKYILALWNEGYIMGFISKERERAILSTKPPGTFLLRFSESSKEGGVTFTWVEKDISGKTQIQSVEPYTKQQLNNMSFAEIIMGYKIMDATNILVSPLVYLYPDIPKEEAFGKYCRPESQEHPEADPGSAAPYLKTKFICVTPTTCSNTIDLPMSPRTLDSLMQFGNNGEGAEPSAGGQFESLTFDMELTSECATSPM
# UniProt P06213, residues 28-1382: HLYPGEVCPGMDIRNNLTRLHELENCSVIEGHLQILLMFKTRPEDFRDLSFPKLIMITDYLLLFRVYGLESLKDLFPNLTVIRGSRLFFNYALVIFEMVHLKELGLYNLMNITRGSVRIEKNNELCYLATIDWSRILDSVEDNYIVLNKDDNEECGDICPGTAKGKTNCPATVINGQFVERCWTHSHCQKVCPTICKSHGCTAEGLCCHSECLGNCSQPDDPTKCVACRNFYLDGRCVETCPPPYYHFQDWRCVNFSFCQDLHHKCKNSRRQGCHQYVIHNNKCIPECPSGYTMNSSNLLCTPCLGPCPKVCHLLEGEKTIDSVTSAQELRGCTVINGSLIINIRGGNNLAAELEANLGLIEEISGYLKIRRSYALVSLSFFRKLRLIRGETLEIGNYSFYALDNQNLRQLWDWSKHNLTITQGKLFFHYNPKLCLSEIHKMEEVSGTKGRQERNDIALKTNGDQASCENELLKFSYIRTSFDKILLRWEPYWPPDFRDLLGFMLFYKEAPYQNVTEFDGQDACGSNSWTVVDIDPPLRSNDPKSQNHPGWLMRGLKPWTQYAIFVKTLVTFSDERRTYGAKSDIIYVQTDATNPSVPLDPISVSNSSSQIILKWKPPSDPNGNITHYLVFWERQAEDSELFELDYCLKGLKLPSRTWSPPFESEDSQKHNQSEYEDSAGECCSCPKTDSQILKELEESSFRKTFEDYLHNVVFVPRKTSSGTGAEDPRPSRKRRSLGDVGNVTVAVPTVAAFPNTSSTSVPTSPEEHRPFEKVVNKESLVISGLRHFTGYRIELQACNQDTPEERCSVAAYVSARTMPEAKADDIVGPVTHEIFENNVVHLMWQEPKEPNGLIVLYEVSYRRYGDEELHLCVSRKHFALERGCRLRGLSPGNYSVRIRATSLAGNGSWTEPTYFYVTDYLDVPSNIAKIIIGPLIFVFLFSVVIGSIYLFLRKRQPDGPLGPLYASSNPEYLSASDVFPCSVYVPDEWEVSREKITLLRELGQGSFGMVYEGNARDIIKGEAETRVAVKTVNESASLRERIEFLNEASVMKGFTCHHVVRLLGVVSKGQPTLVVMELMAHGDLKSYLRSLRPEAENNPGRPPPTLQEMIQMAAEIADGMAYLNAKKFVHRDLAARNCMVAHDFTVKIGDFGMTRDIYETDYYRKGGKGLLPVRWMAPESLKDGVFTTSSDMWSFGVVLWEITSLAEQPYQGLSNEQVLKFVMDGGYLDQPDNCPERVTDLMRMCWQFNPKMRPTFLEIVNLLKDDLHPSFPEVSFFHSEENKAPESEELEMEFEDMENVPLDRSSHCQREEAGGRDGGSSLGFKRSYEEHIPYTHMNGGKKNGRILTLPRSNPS
# What was measured:
# Flag-SIRT5 = Flag-SIRT5 (UniProt Q9NXA8); experiment: co-IP; STAT3 full length, 1-130 and 465-770 cotransfected with Flag-SIRT5 in 293T cells; Flag-SIRT5 immunoprecipitates blotted for STAT3
# [1] = target: CBP (exogenously expressed) (UniProt Q92793); experiment: co-IP; exogenously expressed CBP and insulin receptor in 293T cells (Supplementary Fig. 2a)
binding (Flag-SIRT5),binding [1],Substance
binds,–,STAT3 465-770 (from UniProt P40763 465-770) (domain or fragment)
–,binds,insulin receptor (exogenously expressed) (from UniProt P06213 28-1382)
binds,–,STAT3 full length (cotransfected with Flag-SIRT5) (from UniProt P40763 1-770)
binds weakly,–,STAT3 1-130 (from UniProt P40763 1-130) (domain or fragment)

# Source: publication PMC5177931
